Values from PubChem BioAssay AID1259314 (Drosophila RNAi Screening Center, 2017)
Here is an unselected part of about 3,100 deposited reagents. 289 of all reagents (9.3%) count as active. 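Active includes both higher and lower ATP than plate average; check the z-score sign for direction.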 Unmarked entries are inactive. The numbers tell different reagents against one gene apart. A plus sign joins genes that one reagent is predicted to hit. Not stated in the record: the amount of reagent.

Screen: 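Modifiers of manganese chloride toxicity in fly cells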 (primary screen)
System: Drosophila S2R+ cells
Reagent: long dsRNA against Drosophila genes
Timing: 5 days (4 days knock-down, then 1 day metal exposure)
Treatment: manganese chloride added to 15 mM for 24 hours
Read-out: 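Luciferase ATP signal used as a proxy for viable cell number, reported as one averaged z-score per dsRNA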
Reading the numbers: mean ATP z-score: higher = more ATP than the plate average, more viable cells under manganese
Active means: 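a mean ATP z-score past 1.5 in either direction is called active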
Meaning of the calls: active = strong ATP change, up or down; inactive = no strong ATP change

target gene | reagent no. | mean ATP z-score
Lfg + asRNA:CR43468 | 1 | -0.322
CG6230 | 1 | 0.944
oys | 1 | -1.82 (active)
oys | 2 | -0.988
oys | 3 | -0.0695
PlexA | 1 | 0.0946
wfs1 | 1 | 0.4
hec | 1 | -0.408
hec | 2 | -0.488
Baldspot | 1 | -0.838
Ir52a | 1 | -0.913
CG14855 | 1 | 0.366
CG14855 | 2 | 2.03 (active)
CG30345 | 1 | -0.509
CG30345 | 2 | 0.0952
Ir48c | 1 | 0.451
Ir48c | 2 | 0.735
ifc | 1 | 0.56
ifc | 2 | 0.379
CG34433 | 1 | 0.122
N | 1 | 0.318
N | 2 | 0.335
CG8028 | 1 | -0.708
Gr5a | 1 | 0.186
Flo1 | 1 | 0.974
Flo1 | 2 | 0.967
mAChR-B | 1 | -0.953
mAChR-B | 2 | -0.587
CG4313 | 1 | 0.504
CG4313 | 2 | -1.34
VAChT | 1 | -0.635
VAChT | 2 | 2.16 (active)
meigo | 1 | -0.145
meigo | 2 | -0.0502
sand | 1 | 0.155
sand | 2 | -0.0617
Or42b | 1 | -0.707
Or42b | 2 | -0.478
CG30049 | 1 | 0.217
CG30049 | 2 | 1.84 (active)
trp | 1 | -0.0663
trp | 2 | -0.292
CG14053 | 1 | -0.00633
CG14053 | 2 | -0.486
CG14767 | 1 | 2.11 (active)
CG14767 | 2 | 0.117
Hgsnat | 1 | 0.206
Hgsnat | 2 | -1.68 (active)
Cad99C | 1 | 0.0977
Cad99C | 2 | 0.204
CG12490 | 1 | -1.05

In a second layout: results already given.
target gene,reagent no.,mean ATP z-score
meigo,1,-0.145
meigo,2,-0.0502
sand,1,0.155
sand,2,-0.0617
Or42b,1,-0.707
Or42b,2,-0.478
CG30049,1,0.217
CG30049,2,1.84 (active)
trp,1,-0.0663
trp,2,-0.292
CG14053,1,-0.00633
CG14053,2,-0.486

Continued.
target gene | reagent no. | mean ATP z-score
CG14971 | 1 | -0.433
CG7333 | 1 | 1.61 (active)
CG6901 | 1 | -0.61
CG6901 | 2 | 0.114
Ca-alpha1T | 1 | 0.69
Ca-alpha1T | 2 | 0.221
Ca-alpha1T | 3 | 1.2
CG9304 | 1 | 0.0854
CG9304 | 2 | -0.495
frac | 1 | 0.109
frac | 2 | -0.505
CG3702 | 1 | -0.307
CG3702 | 2 | 0.621
CG7806 | 1 | 0.683
CG7806 | 2 | -0.0612
Nhe2 | 1 | -0.69
Nhe2 | 2 | -0.679
anchor | 1 | 0.278
Fitm | 1 | -1.63 (active)
Fitm | 2 | 0.126
CG30043 | 1 | -0.306
CG30043 | 2 | -0.225
MFS16 | 1 | 0.532
MFS16 | 2 | -0.404
Gr98a | 1 | 0.0865
CG13409 | 1 | -0.0816
CG13409 | 2 | 1.2
Ipo9 | 1 | 0.493
Nup50 | 1 | -0.99
Nup50 | 2 | -0.092
CG10165 | 1 | -0.562
CG7627 | 1 | 1.72 (active)
Nup154 | 1 | -0.891
ORMDL | 1 | -0.325
CG32320 | 1 | -0.407
CG32320 | 2 | 0.111
Gr64f | 1 | -1.37
Gr64f | 2 | -2.41 (active)
GluRIIE | 1 | 0.141
GluRIIE | 2 | -0.887
CG31668 | 1 | 0.212
CG31668 | 2 | -0.359
Shab | 1 | 0.139
Shab | 2 | -0.891
Tsp29Fb | 1 | -1.49
Tsp29Fb | 2 | -0.348
Or98a | 1 | -0.398
Or98a | 2 | -0.97
ste24c + CG30461 | 1 | -0.437
ste24c + CG30461 | 2 | 0.213
Alk | 1 | -0.418
Alk | 2 | -0.519
Alk | 3 | 0.637
Gr39b | 1 | -0.404
Gr39b | 2 | 0.109
CG4822 | 1 | -0.601
CG34450 | 1 | -0.767
CG34450 | 2 | -0.772
PGRP-SD | 1 | 0.27
